In PubChem BioAssay AID2685 (National Center for Advancing Translational Sciences (NCATS), 2010):
About 2,100 (0.66%) of roughly 320,000 compounds were called active. Inconclusive results, whose numbers are uncertain, are shown with a selection of clear calls. Calls come from the whole dose curve; as a rule, active = well fitted inhibition curve with a large enough effect in the signal ratio, with a control signal flat (not every such curve was filed as active); inconclusive = small, poorly fitted or top-dose-only effect, or effect the other way, or a change in a side signal; inactive = flat fitted curve, though single readings scatter; the % refers to the signal ratio. A potency beside an inconclusive call is a rough fit, not a confirmed value.

Assay: qHTS Assay for Lipid Storage Modulators in Drosophila S3 Cells
Details: BODIPY lipid droplet fluorescence, 18-24 h, cells fed with added oleic acid; lipid storage change, negative = inhibition: at 46.1 µM (top of the series) unless noted
Procedure, shortened: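 Drosophila S3 cells loaded with oleic acid (400 uM, as added) and compounds at several concentrations; lipid droplets imaged by 488-nm laser-scanning cytometry, 500–530 nm intensity and object ratio to cell channel. Percent activity normalized to 20 uM Triacsin C.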
% is set by controls: 0 for no effect and ±100 for the full control effect; potency is the fitted concentration of half-maximal effect.

| SMILES | lipid storage change, negative = inhibition | Potency | outcome |
| --- | --- | --- | --- |
| COc1ccc(NC(=O)CSc2nc(NS(=O)(=O)c3ccccc3)cc(=O)[nH]2)cc1 | inconclusive: -19.8% |  |  |
| O=C1CC(/C=C/c2ccccc2)=Nc2ccccc2N1 | inconclusive: 64.1% |  |  |
| Cc1ccc2c(c1)=C(c1ccccc1)N(O)CC(=O)N=2 | inconclusive: 15.7% |  |  |
| Cc1ccccc1OCc1nnc(SCC(=O)Nc2ccc3c(c2)OCO3)n1C |  | inconclusive: 20.6 µM [activator, single point] |  |
| CCOC(=O)Nc1ccc(S(=O)(=O)Nn2cnnc2)cc1 | inconclusive: 8.87% |  |  |
| c1ccc2c(c1)-c1cccc3c1c-2cc1ccccc13 | inconclusive: -48.8% |  |  |
| CC(C)CNC(=O)Cn1c(=O)c2c(ncn2CC(C)C)n(Cc2ccccc2)c1=O | inconclusive: -2.3% |  |  |
| O=C(CNc1ccccc1)N/N=C/c1ccc([N+](=O)[O-])o1 |  | inconclusive: 18.4 µM [falling, partial curve] |  |
| O=C(COc1ccc([N+](=O)[O-])cc1)Nc1ccc2[nH]c(=O)[nH]c2c1 | inconclusive: 0.03% |  |  |
| CC(=O)Nc1cccc(NC(=O)CCCC2CCCCC2)c1 |  | inconclusive: 29.1 µM [activator, single point] |  |
| CCn1ncc(Cl)c1C(=O)Nc1ccc2c(c1)CCC2 | inconclusive: 20.6% |  |  |
| CCC(C)NC(=O)CCc1c(C)nc2nc(-c3cc(OC)cc(OC)c3)nn2c1C (configuration not stated) |  | inconclusive: 2.59 µM [activator, partial curve] |  |
| O=C(Nc1ccc(O)cc1)N1CCOCC1 |  |  | inactive [at 46.1 µM] |
| CCOC(OCC)c1cn(Cc2ccc(C(=O)c3ccccc3)cc2)nn1 | inconclusive: 185% |  |  |
| O=C(COC(=O)C1CC1)NC(=O)NCc1ccccc1 | inconclusive: -2.62% |  |  |
| CNS(=O)(=O)c1ccc(NS(=O)(=O)c2ccccc2F)cc1 | inconclusive: 65.4% |  |  |
| O=C(N/N=C\c1ccccc1F)c1ccc(-c2ccccc2)cc1 | inconclusive: -9.06% |  |  |
| O=C(O)CNC1=NCCCCC1 |  | inconclusive: 29.1 µM [activator, partial curve, poor fit] |  |
| CCOc1ccc(NC(=O)CSc2nc3ccsc3c(=O)n2CCC(=O)O)cc1 | inconclusive: 19.4% |  |  |
| O=C(CSc1nc(C2CC2)nc2ccccc12)N1CCc2ccccc2C1 | inconclusive: -1.45% |  |  |
| CCOC(=O)c1ccc(CNC(=O)C(Cc2c[nH]c3ccccc23)NC(C)=O)o1 (configuration not stated) |  |  | inactive [at 46.1 µM] |
| CCc1c(C)nc2cc(-c3ccc(OC)c(OC)c3)nn2c1NCC1CC1 |  | inconclusive: 11.6 µM [cytotoxic, single point] |  |
| COc1ccccc1NC(=O)CSc1nnc(-c2ccoc2C)o1 | inconclusive: -40.8% |  |  |
| CCOc1ccc(N(CC(=O)NCCSCc2ccccc2)S(=O)(=O)c2ccccc2)cc1 |  | inconclusive: 29.1 µM [falling, single point] |  |
| CCC(C)(C)n1nnnc1C(c1ccccc1)N1CCc2ccccc2C1 (configuration not stated) |  | inconclusive: 2.91 µM [activator, single point] |  |
| CCCn1c(SCC(=O)N2CCCc3ccccc32)nnc1-c1ccco1 | inconclusive: 24.7% |  |  |

Exported with bars between the fields: part of the list above
SMILES | lipid storage change, negative = inhibition | Potency | outcome
Cc1ccccc1OCc1nnc(SCC(=O)Nc2ccc3c(c2)OCO3)n1C |  | inconclusive: 20.6 µM [activator, single point] | 
CCOC(=O)Nc1ccc(S(=O)(=O)Nn2cnnc2)cc1 | inconclusive: 8.87% |  | 

Going on with the list:

| SMILES | lipid storage change, negative = inhibition | Potency | outcome |
| --- | --- | --- | --- |
| CC(C)(C)NC(=O)CCN(/N=C/c1ccccc1F)C1=NS(=O)(=O)c2ccccc21 | inconclusive: 3.02% |  |  |
| COc1ccc(C2=NN(C(=O)CSc3ncccn3)C(c3ccc(C)cc3)C2)cc1 (configuration not stated) | inactive: -17% |  |  |
| Cc1nn(CCCC(=O)N2CCc3ccccc3C2)c(=O)c2cc3sccc3n12 | inconclusive: 58% |  |  |
| COc1ccc(S(=O)(=O)N2CCCC(C(=O)NCc3ccco3)C2)cc1Cl (configuration not stated) | inconclusive: -2.31% |  |  |
| CC1CCN(S(=O)(=O)c2ccc3c(ccn3CCC(=O)NC(C)C)c2)CC1 |  | inconclusive: 3.26 µM [activator, single point] |  |
| Cc1cc(C)nc(-n2ncc3c2CC(c2ccccc2)CC3=O)n1 (configuration not stated) |  | inconclusive: 13 µM [falling, partial curve, poor fit] |  |
| C=CCNC(=O)C1CC(=O)N(c2ccc(OCC(=O)Nc3ccc(Cl)c(C(F)(F)F)c3)cc2)C1 (configuration not stated) |  | inconclusive: 8.2 µM [activator, partial curve] |  |
| Cc1cc(C)c(C)c(S(=O)(=O)NCC(=O)O)c1C |  | inconclusive: 0.0517 µM [falling, full curve, poor fit] |  |
| O=C(Nc1ccc(C(=O)N2CCCCC2)cc1)Nc1cccc(Cl)c1 |  | active: 13 µM |  |
| CC(C)[C@H](NC(=O)OCc1ccccc1)C(=O)OCc1cc(=O)oc2cc(O)ccc12 |  | inconclusive: 0.13 µM [falling, full curve, poor fit] |  |
| O=C(CSc1nc(Cc2ccccc2)nc2ccccc12)Nc1ccc2c(c1)OCCO2 |  | inconclusive: 2.91 µM [activator, partial curve] |  |
| CCC(C)[C@H](NC(=O)NCCC1=CCCCC1)C(=O)OC (some centres not stated) | inconclusive: 19.9% |  |  |
| COCCn1c(SCC(=O)Nc2cccnc2Cl)nc2cc(Cl)ccc2c1=O | inconclusive: 10.8% |  |  |
| COc1ccccc1CC(NC(C)=O)C(=O)NC1CCN(C(=O)NCc2ccccc2)CC1 (configuration not stated) | inconclusive: 42.3% |  |  |
| Cc1csc(NC(=O)c2ccccc2C(=O)O)n1 |  | inconclusive: 1.3 µM [falling, partial curve, poor fit] |  |
| C=CCN=c1scc(-c2ccc3c(c2)NC(=O)CO3)n1/N=C(\C)c1ccccn1 | inconclusive: 11.8% |  |  |
| Cc1[nH]c2ccc(C(=O)N3CCN(c4ccc(F)cc4)CC3)cc2c1C |  | inconclusive: 0.164 µM [activator, full curve, poor fit] |  |
| O=C(Nc1nc2ccc(Cl)cc2s1)c1cccc(N2C(=O)CCC2=O)c1 | inconclusive: 0.207% |  |  |
| Cn1c(=O)cc(OCC(=O)NCCCN2CCN(c3ccccc3F)CC2)c2ccccc21 | inconclusive: -2.7% |  |  |
| CNc1cnn(-c2ccc(C)cc2)c(=O)c1Sc1ccc(C)cc1 | inconclusive: -44.5% [at 9.22 µM] |  |  |
| CCCCOC(=O)c1ccc(NC(=O)c2nn(C)cc2Br)cc1 | inconclusive: -21.3% |  |  |
| COc1ccc(OC)c(-n2c(C)ccc2-c2ccc(S(C)(=O)=O)cc2)c1 | inconclusive: 98% |  |  |
| O=C(N/N=C/c1c(O)n(Cc2ccco2)c(=O)[nH]c1=O)c1ccccc1 | inconclusive: 9.5% |  |  |
| Cn1c(C(=O)OCC(=O)NCC2CCCO2)cc2sccc21 (configuration not stated) | inactive: 0.961% |  |  |
| Cc1[nH]c2ccccc2c1C(c1ccccn1)c1c(C)[nH]c2ccccc12 | inconclusive: 10.7% |  |  |
| CC(C)(C)C1CCC(C(=O)Nc2ccc(N3CCOCC3)cc2N2CCOCC2)CC1 (configuration not stated) |  | active: 0.0731 µM |  |

15 compounds already listed, ordered by count of non-hydrogen atoms, ascending.

| SMILES | lipid storage change, negative = inhibition | Potency | outcome |
| --- | --- | --- | --- |
| Cc1csc(NC(=O)c2ccccc2C(=O)O)n1 |  | inconclusive: 1.3 µM [falling, partial curve, poor fit] |  |
| CCC(C)[C@H](NC(=O)NCCC1=CCCCC1)C(=O)OC (some centres not stated) | inconclusive: 19.9% |  |  |
| Cn1c(C(=O)OCC(=O)NCC2CCCO2)cc2sccc21 (configuration not stated) | inactive: 0.961% |  |  |
| CCCCOC(=O)c1ccc(NC(=O)c2nn(C)cc2Br)cc1 | inconclusive: -21.3% |  |  |
| Cc1cc(C)nc(-n2ncc3c2CC(c2ccccc2)CC3=O)n1 (configuration not stated) |  | inconclusive: 13 µM [falling, partial curve, poor fit] |  |
| O=C(Nc1ccc(C(=O)N2CCCCC2)cc1)Nc1cccc(Cl)c1 |  | active: 13 µM |  |
| O=C(N/N=C/c1c(O)n(Cc2ccco2)c(=O)[nH]c1=O)c1ccccc1 | inconclusive: 9.5% |  |  |
| Cc1[nH]c2ccccc2c1C(c1ccccn1)c1c(C)[nH]c2ccccc12 | inconclusive: 10.7% |  |  |
| COCCn1c(SCC(=O)Nc2cccnc2Cl)nc2cc(Cl)ccc2c1=O | inconclusive: 10.8% |  |  |
| C=CCN=c1scc(-c2ccc3c(c2)NC(=O)CO3)n1/N=C(\C)c1ccccn1 | inconclusive: 11.8% |  |  |
| CC(C)(C)NC(=O)CCN(/N=C/c1ccccc1F)C1=NS(=O)(=O)c2ccccc21 | inconclusive: 3.02% |  |  |
| CC(C)[C@H](NC(=O)OCc1ccccc1)C(=O)OCc1cc(=O)oc2cc(O)ccc12 |  | inconclusive: 0.13 µM [falling, full curve, poor fit] |  |
| O=C(CSc1nc(Cc2ccccc2)nc2ccccc12)Nc1ccc2c(c1)OCCO2 |  | inconclusive: 2.91 µM [activator, partial curve] |  |
| Cn1c(=O)cc(OCC(=O)NCCCN2CCN(c3ccccc3F)CC2)c2ccccc21 | inconclusive: -2.7% |  |  |
| C=CCNC(=O)C1CC(=O)N(c2ccc(OCC(=O)Nc3ccc(Cl)c(C(F)(F)F)c3)cc2)C1 (configuration not stated) |  | inconclusive: 8.2 µM [activator, partial curve] |  |

Next part

| SMILES | lipid storage change, negative = inhibition | Potency | outcome |
| --- | --- | --- | --- |
| CCN(Cc1cc2ccccc2[nH]c1=O)C(=O)c1cccc([N+](=O)[O-])c1 | inconclusive: 9.91% |  |  |
| CCN(CC)S(=O)(=O)c1ccc(N2CCCC2)c(C(=O)OCC(=O)N2CCCC2)c1 |  | inconclusive: 6.51 µM [activator, single point] |  |
| COC(=O)CSC1=C(C#N)C(c2ccccc2OC)C(C(=O)OC)C(=O)N1 (configuration not stated) |  | inconclusive: 0.731 µM [falling, full curve] |  |
| N/C(=N\OC(=O)Cc1ccccc1)c1ccc(Br)cc1 |  | inconclusive: 16.4 µM [activator, partial curve] |  |
| Cc1ccc(C)c(S(=O)(=O)N2CCNCC2)c1 |  | inconclusive: 29.1 µM [falling, single point] |  |
| O=C(Nc1ccc(F)cc1)c1sc(Cl)nc1-c1ccccc1 | inconclusive: -5.38% |  |  |
| CCOc1cccc2c1OC(c1cc(OC)c(OC)c(OC)c1)N1N=C(c3ccc(C)o3)CC21 (configuration not stated) |  | inconclusive: 29.1 µM [falling, single point] |  |
| CCCn1c2ccccc2c2cnn(CC(=O)NCCCN3C(C)CCCC3C)c(=O)c21 (configuration not stated) | inconclusive: 65.4% |  |  |
| COCCNC(=O)c1c(NC(=O)c2nc(SC)ncc2Cl)sc2c1CCCC2 | inconclusive: 4.21% |  |  |
| CCOc1ccc(CN(C)C(=O)c2cc3ccccc3o2)cc1OC | inconclusive: -19.9% |  |  |
| CCc1cccc(C)c1NC(=O)C1CCCN(S(C)(=O)=O)C1 (configuration not stated) | inconclusive: -149% |  |  |
| CCCn1c(SCC(=O)N2N=C3/C(=C/c4ccc(OC)cc4)CCCC3C2c2ccc(OC)cc2)n[nH]c1=O (configuration not stated) | inconclusive: 32.9% |  |  |
| Cc1ccc(/C=C2/SC(=S)N(CCC(=O)NCCCN3CCOCC3)C2=O)cc1 | inconclusive: 21% |  |  |
| O=C1CCCC(c2ccccc2)N1 (configuration not stated) | inconclusive: -14% |  |  |
| COc1ccccc1C(=O)Nc1ccc2c(c1)CCCN2C(=O)c1cccs1 |  | inconclusive: 0.291 µM [falling, partial curve, poor fit] |  |
| COc1ccc(CNC(=O)C(C)Sc2ccc(C)cc2)cc1 (configuration not stated) | inconclusive: 20.9% [at 9.22 µM] |  |  |
| CCOc1ccccc1CNc1ncnc2ccc(-c3c(C)noc3C)cc12 |  | inconclusive: 16.4 µM [falling, single point] |  |
| Cc1ccc(-n2nnnc2SC(C)C(=O)Nc2ccc(Cl)cn2)cc1 (configuration not stated) |  | inconclusive: 29.1 µM [falling, single point] |  |
| CC(=O)N1CCN=C1SCc1ccccc1F | inconclusive: 8.46% |  |  |
| Cn1c(SCC(=O)c2c(N)n(C)c(=O)n(C)c2=O)nnc1-c1ccc(F)cc1 | inconclusive: 3.1% |  |  |
| CCN(CC(=O)Nc1ccc(Br)cc1)C(=O)c1nc2nc(C)cc(C)n2n1 | inconclusive: 14% |  |  |
| COC(=O)c1ccc(-c2nc3ccccc3[nH]2)cc1 | inconclusive: 5.38% |  |  |
| Cc1ccc(C(=O)O)cc1N1C(=O)c2cccc3c([N+](=O)[O-])ccc(c23)C1=O | inconclusive: -42% |  |  |
| CCc1ccc(NC(=O)C(C)OC(=O)C2CCC(=O)N2)cc1 (configuration not stated) | inconclusive: 12.1% |  |  |
| CCOc1ccccc1N=C1SC(CC(=O)Nc2ccc(OC)cc2OC)C(=O)N1CCC1=CCCCC1 (configuration not stated) |  | active: 25.9 µM |  |
